Assay results as given in patent publication US20160280723.
For some assays here: A negative result means that nothing was seen under these conditions.

Legend:
[1] = tested on: alpha-thrombin (Homo sapiens); assay: activity assay; conditions: 3' thiol (3ThioMC3-D) coupled to vinyl sulfone-PEG36-azide linker 6b, tethered to cyclooctyne AFM tip; AFM unbinding force; 26.5% specific unbinding events; 7.0% and 15.6 pN after blocking with free thrombin; 1x PBS pH 7.4, loading rate 25000 pN/s; single-stranded DNA; dose not given here
[2] = biological target: bovine serum albumin (BSA) (Bos taurus) (UniProt P02769); assay: activity assay; conditions: 3' thiol (3ThioMC3-D) coupled to vinyl sulfone-PEG36-azide linker 6b, tethered to cyclooctyne AFM tip; AFM nonspecific unbinding force; 6.1% events; specificity control; 1x PBS pH 7.4; protein details: immobilized on mica; single-stranded DNA; dose not given …

GGTTGGTGTGGTTGG
functional effect of the aptamer [1]: active | functional effect of the aptamer [2]: not active
